Data taken from PMC9385660.

By UniProt entry, the sequences of proteins in these tests, tags left out. Residues count along the entry.
UniProt Q13488: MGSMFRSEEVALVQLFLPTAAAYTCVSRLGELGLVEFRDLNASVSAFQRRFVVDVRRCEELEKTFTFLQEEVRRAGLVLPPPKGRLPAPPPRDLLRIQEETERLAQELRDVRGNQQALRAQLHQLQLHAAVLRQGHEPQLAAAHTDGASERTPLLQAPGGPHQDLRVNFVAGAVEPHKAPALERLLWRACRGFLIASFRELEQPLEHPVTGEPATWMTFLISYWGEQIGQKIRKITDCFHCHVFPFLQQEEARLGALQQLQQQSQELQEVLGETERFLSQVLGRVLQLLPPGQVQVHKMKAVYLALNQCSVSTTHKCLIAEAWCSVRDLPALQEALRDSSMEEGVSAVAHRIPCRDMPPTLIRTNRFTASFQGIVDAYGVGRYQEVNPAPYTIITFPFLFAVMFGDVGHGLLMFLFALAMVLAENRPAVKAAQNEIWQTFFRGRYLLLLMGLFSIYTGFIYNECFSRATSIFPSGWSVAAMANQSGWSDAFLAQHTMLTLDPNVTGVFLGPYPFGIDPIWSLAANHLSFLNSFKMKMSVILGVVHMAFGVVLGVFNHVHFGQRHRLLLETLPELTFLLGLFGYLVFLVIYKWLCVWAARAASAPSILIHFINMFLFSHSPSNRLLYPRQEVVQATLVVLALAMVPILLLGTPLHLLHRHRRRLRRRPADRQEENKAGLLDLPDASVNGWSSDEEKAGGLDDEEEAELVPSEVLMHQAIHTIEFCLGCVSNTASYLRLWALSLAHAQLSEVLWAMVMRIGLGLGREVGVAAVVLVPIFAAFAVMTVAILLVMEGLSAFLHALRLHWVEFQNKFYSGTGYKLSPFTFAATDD
UniProt Q9R1Q9, residues 33-463: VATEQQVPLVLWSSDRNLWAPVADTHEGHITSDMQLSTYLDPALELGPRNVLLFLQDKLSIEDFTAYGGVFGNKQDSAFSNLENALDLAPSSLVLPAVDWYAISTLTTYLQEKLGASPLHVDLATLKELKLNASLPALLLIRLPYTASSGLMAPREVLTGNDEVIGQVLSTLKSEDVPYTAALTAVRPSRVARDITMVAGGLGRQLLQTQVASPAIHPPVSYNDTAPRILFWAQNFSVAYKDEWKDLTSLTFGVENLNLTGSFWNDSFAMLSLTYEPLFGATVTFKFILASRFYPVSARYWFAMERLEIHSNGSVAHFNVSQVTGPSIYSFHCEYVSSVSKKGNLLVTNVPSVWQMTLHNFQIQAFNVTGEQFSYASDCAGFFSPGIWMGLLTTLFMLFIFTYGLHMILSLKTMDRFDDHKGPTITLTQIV
UniProt P80316: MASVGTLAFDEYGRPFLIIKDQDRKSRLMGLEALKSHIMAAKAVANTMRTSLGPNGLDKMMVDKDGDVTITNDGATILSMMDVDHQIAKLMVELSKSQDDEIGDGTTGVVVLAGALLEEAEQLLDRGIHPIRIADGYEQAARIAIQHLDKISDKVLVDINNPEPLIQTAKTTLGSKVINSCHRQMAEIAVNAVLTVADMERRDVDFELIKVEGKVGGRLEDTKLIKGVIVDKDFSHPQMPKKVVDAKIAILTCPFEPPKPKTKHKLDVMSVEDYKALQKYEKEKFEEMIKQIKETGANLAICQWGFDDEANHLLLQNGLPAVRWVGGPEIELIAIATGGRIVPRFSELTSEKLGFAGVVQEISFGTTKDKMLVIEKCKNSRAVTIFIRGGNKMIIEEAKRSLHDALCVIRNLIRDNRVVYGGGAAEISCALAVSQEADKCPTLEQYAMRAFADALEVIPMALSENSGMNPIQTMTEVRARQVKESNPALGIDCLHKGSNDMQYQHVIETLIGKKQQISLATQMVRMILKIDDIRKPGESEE
UniProt P11983: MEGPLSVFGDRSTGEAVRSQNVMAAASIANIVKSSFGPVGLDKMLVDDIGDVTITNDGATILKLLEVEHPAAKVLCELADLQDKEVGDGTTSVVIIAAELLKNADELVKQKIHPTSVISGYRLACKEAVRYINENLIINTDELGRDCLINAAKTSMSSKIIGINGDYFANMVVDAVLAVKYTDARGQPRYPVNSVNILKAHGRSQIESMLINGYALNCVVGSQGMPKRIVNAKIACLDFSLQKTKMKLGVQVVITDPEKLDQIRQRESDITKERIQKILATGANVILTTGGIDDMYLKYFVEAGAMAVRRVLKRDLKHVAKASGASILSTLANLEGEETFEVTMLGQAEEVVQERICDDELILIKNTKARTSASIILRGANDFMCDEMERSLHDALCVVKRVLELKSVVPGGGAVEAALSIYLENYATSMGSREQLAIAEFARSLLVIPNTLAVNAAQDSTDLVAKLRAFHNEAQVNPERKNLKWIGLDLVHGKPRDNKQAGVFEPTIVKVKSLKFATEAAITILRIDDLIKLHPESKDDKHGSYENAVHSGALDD
UniProt Q9CQ22: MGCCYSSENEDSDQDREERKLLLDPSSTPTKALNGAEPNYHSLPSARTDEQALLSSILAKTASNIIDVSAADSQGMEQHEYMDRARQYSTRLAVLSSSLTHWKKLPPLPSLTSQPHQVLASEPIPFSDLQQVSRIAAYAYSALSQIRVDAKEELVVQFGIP
UniProt Q3TWL2: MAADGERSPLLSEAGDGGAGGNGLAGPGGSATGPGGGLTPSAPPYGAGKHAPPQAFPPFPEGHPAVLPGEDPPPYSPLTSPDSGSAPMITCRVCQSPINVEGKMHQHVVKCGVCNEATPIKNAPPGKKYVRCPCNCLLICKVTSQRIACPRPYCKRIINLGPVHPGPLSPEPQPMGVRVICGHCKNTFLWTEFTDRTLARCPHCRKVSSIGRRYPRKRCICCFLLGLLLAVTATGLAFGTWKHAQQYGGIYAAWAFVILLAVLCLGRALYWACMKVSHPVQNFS
UniProt O88653: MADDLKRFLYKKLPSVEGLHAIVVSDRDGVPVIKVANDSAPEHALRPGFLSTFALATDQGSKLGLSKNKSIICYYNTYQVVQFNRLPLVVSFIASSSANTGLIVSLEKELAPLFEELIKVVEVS
UniProt P21281: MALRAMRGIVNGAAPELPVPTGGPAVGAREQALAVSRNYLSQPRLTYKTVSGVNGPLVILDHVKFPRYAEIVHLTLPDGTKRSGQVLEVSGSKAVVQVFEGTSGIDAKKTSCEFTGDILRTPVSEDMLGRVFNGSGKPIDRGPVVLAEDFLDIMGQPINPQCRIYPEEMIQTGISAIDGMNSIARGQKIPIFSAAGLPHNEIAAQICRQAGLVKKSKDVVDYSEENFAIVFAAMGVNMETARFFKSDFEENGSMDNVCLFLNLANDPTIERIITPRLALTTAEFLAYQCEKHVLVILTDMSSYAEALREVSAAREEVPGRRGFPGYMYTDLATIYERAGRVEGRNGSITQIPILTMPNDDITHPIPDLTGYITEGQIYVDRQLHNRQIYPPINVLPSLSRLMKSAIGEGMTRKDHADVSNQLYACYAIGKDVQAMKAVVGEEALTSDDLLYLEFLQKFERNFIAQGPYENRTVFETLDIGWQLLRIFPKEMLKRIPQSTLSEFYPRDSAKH

B1: Cct4 (subunit of the chaperonin TRiC) (protein, UniProt P80315 1-539)
chain: MPENVASRSGAPTAGPGSRGKSAYQDRDKPAQIRFSNISAAKAVADAIRTSLGPKGMDKMIQDGKGDVTITNDGATILKQMQVLHPAARMLVELSKAQDIEAGDGTTSVVIIAGSLLDSCTKLLQKGIHPTIISESFQKALEKGLEILTDMSRPVQLSDRETLLNSATTSLNSKVVSQYSSLLSPMSVNAVMKVIDPATATSVDLRDIKIVKKLGGTIDDCELVEGLVLTQKVANSGITRVEKAKIGLIQFCLSAPKTDMDNQIVVSDYAQMDRVLREERAYILNLVKQIKKTGCNVLLIQKSILRDALSDLALHFLNKMKIMVVKDVEREDIEFICKTIGTKPVAHIDQFTADMLGSAELAEEVSLNGSGKLFKITGCTSPGKTVTIVVRGSNKLVIEEAERSIHDALCVIRCLVKKRALIAGGGAPEIELALRLTEYSRTLSGMESYCVRAFADAMEVIPSTLAENAGLNPISTVTELRNRHAQGEKTTGINVRKGGISNILEEMVVQPLLVSVSALTLATETVRSILKIDDVVNTR
B2: flotillin-2 (protein, UniProt Q60634 1-428)
chain: MGNCHTVGPNEALVVSGGCCGSDYKQYVFGGWAWAWWCISDTQRISLEIMTLQPRCEDVETAEGVALTVTGVAQVKIMTEKELLAVACEQFLGKNVQDIKNVVLQTLEGHLRSILGTLTVEQIYQDRDQFAKLVREVAAPDVGRMGIEILSFTIKDVYDKVDYLSSLGKTQTAVVQRDADIGVAEAERDAGIREAECKKEMLDVKFMADTKIADSKRAFELQKSAFSEEVNIKTAEAQLAYELQGAREQQKIRQEEIEIEVVQRKKQIAVEAQEILRTDKELIATVRRPAEAEAHRIQQIAEGEKVKQVLLAQAEAEKIRKIGEAEAAVIEAMGKAEAERMKLKAEAYQKYGDAAKMALVLEALPQIAAKISAPLTKVDEIVVLSGDNSKVTSEVNRLLAELPASVHALTGVDLSKIPLIKNATGAQV
B3: Cct8 (subunit of the chaperonin TRiC) (protein, UniProt P42932 1-548)
chain: MALHVPKAPGFAQMLKDGAKHFSGLEEAVYRNIQACKELAQTTRTAYGPNGMNKMVINRLEKLFVTNDAATILRELEVQHPAAKMIVMASHMQEQEVGDGTNFVLVFAGALLELAEELLRIGLSVSEVISGYEIACKKAHEILPELVCCSAKNLRDVDEVSSLLRTSIMSKQYGSETFLAKLIAQACVSIFPDSGNFNVDNIRVCKILGSGIYSSSVLHGMVFKKETEGDVTSVKDAKIAVYSCPFDGMITETKGTVLIKTAEELMNFSKGEENLMDAQVKAIAGTGANVIVTGGKVADIALHYANKYNIMLVRLNSKWDLRRLCKTVGATALPKLTPPVQEEMGHCDSVYLSEVGDTQVVVFKHEKEDGAISTIVLRGSTDNLMDDIERAVDDGVNTFKVLTRDKRLVPGGGATEIELAKQITSYGETCPGLEQYAIKKFAEAFEAIPRALAENSGVKANEVISKLYSVHQEGNKNVGLDIEAEVPAVKDMLEASILDTYLGKYWAIKLATNAAVTVLRVDQIIMAKPAGGPKPPSGKKDWDDDQND
B4: Ccdc115 (protein, UniProt Q8VE99 1-180)
chain: MAVQALREELDSKCLQLLSDLEELEAKRAALNARVEEGWLSLAKARYAMGAKSVGPLQYASRMEPQVCVRASEAQDGPQTFRVIKADAQTPEEVGPSEASLRRRKGPTKTKELGSAVVPQDPLNWFGILVPHSLRQAQASFRDGLQLAADIASLQTRINWGQSQLRGLQKKLKELDPGPA
B5: Cct3 (subunit of the chaperonin TRiC) (protein, UniProt P80318 1-545)
chain: MMGHRPVLVLSQNTKRESGRKVQSGNINAAKTIADIIRTCLGPKSMMKMLLDPMGGIVMTNDGNAILREIQVQHPAAKSMIEISRTQDEEVGDGTTSVIILAGEMLSVAEHFLEQQMHPTVVISAYRMALDDMISTLKKISTPVDVNNREMMLSIINSSITTKVISRWSSLACNIALDAVKTVQFEENGRKEIDIKKYARVEKIPGGIIEDSCVLRGVMINKDVTHPRMRRYIKNPRIVLLDSSLEYKKGESQTDIEITREEDFTRILQMEEEYIHQLCEDIIQLKPDVVITEKGISDLAQHYLMRANVTAIRRVRKTDNNRIARACGARIVSRPEELREDDVGTGAGLLEIKKIGDEYFTFITDCKDPKACTILLRGASKEILSEVERNLQDAMQVCRNVLLDPQLVPGGGASEMAVAHALTEKSKAMTGVEQWPYRAVAQALEVIPRTLIQNCGASTIRLLTSLRAKHTQESCETWGVNGETGTLVDMKELGIWEPLAVKLQTYKTAVETAVLLLRIDDIVSGHKKKGDDQNRQTGAPDAGQE
B6: Tmem199 (protein, UniProt Q5SYH2 1-208)
chain: MASSLLAGERLVRALGPGGELEREQLPRKLRAQLEAALGKKHAGSDNATGPRRLVSFRLIRDLHQHLRERNSRLYLHELLEGSDIYFPEIVKPPRNPELVARLEKIKIQLANEEYKRITRNVTCQDAQCGGTLSDLGKQVRSVKALVVTIFNFIITVAAAFVCTYLGSQYVFTEMASRVLAALIVASVVGLAELYVMVRAMEGELGEL
B7: Cct7 (subunit of the chaperonin TRiC) (protein, UniProt P80313 1-544)
chain: MMPTPVILLKEGTDSSQGIPQLVSNISACQVIAEAVRTTLGPRGMDKLIVDGRGKATISNDGATILKLLDVVHPAAKTLVDIAKSQDAEVGDGTTSVTLLAAEFLKQVKPYVEEGLHPQIIIRAFRTATQLAVNKIKEIAVTVKKQDKVEQRKMLEKCAMTALSSKLISQQKVFFAKMVVDAVMMLDELLQLKMIGIKKVQGGALEESQLVAGVAFKKTFSYAGFEMQPKKYKNPKIALLNVELELKAEKDNAEIRVHTVEDYQAIVDAEWNILYDKLEKIHQSGAKVILSKLPIGDVATQYFADRDMFCAGRVPEEDLKRTMMACGGSIQTSVNALVPDVLGHCQVFEETQIGGERYNFFTGCPKAKTCTIILRGGAEQFMEETERSLHDAIMIVRRAIKNDSVVAGGGAIEMELSKYLRDYSRTIPGKQQLLIGAYAKALEIIPRQLCDNAGFDATNILNKLRARHAQGGMWYGVDINNENIADNFQAFVWEPAMVRINALTAASEAACLIVSVDETIKNPRSTVDPPAPSAGRGRGQARFH
B8: Cct2 (subunit of the chaperonin TRiC) (protein, UniProt P80314 1-535)
chain: MASLSLAPVNIFKAGADEERAETARLSSFIGAIAIGDLVKSTLGPKGMDKILLSSGRDAALMVTNDGATILKNIGVDNPAAKVLVDMSRVQDDEVGDGTTSVTVLAAELLREAESLIAKKIHPQTIISGWREATKAAREALLSSAVDHGSDEARFWQDLMNIAGTTLSSKLLTHHKDHFTKLAVEAVLRLKGSGNLEAIHVIKKLGGSLADSYLDEGFLLDKKIGVNQPKRIENAKILIANTGMDTDKIKIFGSRVRVDSTAKVAEIEHAEKEKMKEKVERILKHGINCFINRQLIYNYPEQLFGAAGVMAIEHADFAGVERLALVTGGEIASTFDHPELVKLGSCKLIEEVMIGEDKLIHFSGVALGEACTIVLRGATQQILDEAERSLHDALCVLAQTVKDPRTVYGGGCSEMLMAHAVTQLANRTPGKEAVAMESFAKALRMLPTIIADNAGYDSADLVAQLRAAHSEGHITAGLDMKEGTIGDMAVLGITESFQVKRQVLLSAAEAAEVILRVDNIIKAAPRKRVPDHHPC
B9: flotillin-1 (protein, UniProt O08917 1-428)
chain: MFFTCGPNEAMVVSGFCRSPPVMVAGGRVFVLPCIQQIQRISLNTLTLNVKSEKVYTRHGVPISVTGIAQVKIQGQNKEMLAAACQMFLGKTEAEIAHIALETLEGHQRAIMAHMTVEEIYKDRQKFSEQVFKVASSDLVNMGISVVSYTLKDIHDDQDYLHSLGKARTAQVQKDARIGEAEAKRDAGIREAKAKQEKVSAQCLSEIEMAKAQRDYELKKATYDIEVNTRRAQADLAYQLQVAKTKQQIEEQRVQVQVVERAQQVAVQEQEIARREKELEARVRKPAEAERYRLERLAEAEKAQLIMQAEAEAESVRMRGEAEAFAIGARARAEAEQMAKKAEAFQMYQEAAQLDMLLEKLPQVAEEISGPLTSANKITLVSSGSGTMGAAKVTGEVLDILSRLPESVERLTGVSISQVNHNKPLRTA

Each molecule was assayed against Flag-tagged Voa3 (V-ATPase Vo domain subunit a3, ATP6Voa3/TCIRG1) (human) (UniProt Q13488) (assay: affinity purification with mass spectrometry; SILAC Co-IP from MEFs expressing empty vector and either HA-V1B2 or Flag-Voa3; lysis in 40 mM HEPES pH 7.4, 150 mM NaCl, 2 mM EDTA, 1% Triton X-100, 5% glycerol; anti-HA or anti-Flag with Dynabeads protein G, 2 h at 4 °C; full medium, 1 h amino acid starvation, or starvation + 30 min amino acid restimulation).

binding | Molecule
binds | Atp6ap1 (from UniProt Q9R1Q9 33-463)
no binding | Cct5 (subunit of the chaperonin TRiC) (from UniProt P80316 1-541)
no binding | Cct1 (subunit of the chaperonin TRiC) (from UniProt P11983 1-556)
binds | Lamtor 1 (subunit of the ragulator complex) (from UniProt Q9CQ22 1-161)
binds | Tmem55b (from UniProt Q3TWL2 1-284)
binds | Lamtor 3 (subunit of the ragulator complex) (from UniProt O88653 1-124)
no binding | B1
binds | B2
no binding | B3
binds | B4
no binding | B5
binds | B6
no binding | B7
no binding | B8
binds | B9

These molecules were tested against HA-tagged V1B2 (V-ATPase V1 domain subunit B2, ATP6V1B2) (human) (UniProt P21281) in the same assay as above.

binding | Molecule
no binding | Atp6ap1 (from UniProt Q9R1Q9 33-463)
binds | Cct5 (subunit of the chaperonin TRiC) (from UniProt P80316 1-541)
binds | Cct1 (subunit of the chaperonin TRiC) (from UniProt P11983 1-556)
binds | Tmem55b (from UniProt Q3TWL2 1-284)
binds | B1
binds | B2
binds | B3
no binding | B4
binds | B5
no binding | B6
binds | B7
binds | B8
binds | B9

Results are given in words; binding and its absence hold for the method and conditions named. Binding seen in cells or lysates may run through a third protein. These calls come from enrichment with a bait or labelling near it, and not all partners need be listed. No binding means not detected with the bait.
